Test [1] addresses GST fusion protein of the M3R third intracellular loop (ICL3) (UniProt P20309). Put plainly: pull-down; GST fusion proteins tethered to glutathione beads (MagneGST Pull-Down System), incubated with total lysates of HEK293 cells expressing GFP–Rab43; 20 mM Tris HCl pH 7.5, 140 mM NaCl, 1% Nonidet P-40, 0.5% BSA, 10% glycerol, overnight at 4 °C; immunoblot with GFP antibodies; only the target purified. For orientation: Immunoblotting shows a protein as a band on a membrane.

In test [2] the target is T1, GST fusion protein of the α2B-AR third intracellular loop (ICL3) (UniProt P19328).
T1 sequence: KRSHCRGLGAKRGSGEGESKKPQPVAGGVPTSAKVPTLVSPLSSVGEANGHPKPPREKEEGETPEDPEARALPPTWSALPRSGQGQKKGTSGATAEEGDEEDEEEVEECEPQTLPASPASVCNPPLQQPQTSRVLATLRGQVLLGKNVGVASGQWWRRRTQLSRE
Described as above.

Test [3] addresses venus-tagged α2B-adrenergic receptor (UniProt P19328). Put plainly: FRET or BRET; live SHSY5Y cells transfected with 250 ng Rluc-tagged Rab43 and 750 ng venus-tagged receptors; coelenterazine h; net BRET. (In BRET a luciferase serves as donor, and the signal depends on an acceptor being close.)
Test [4] has as its target venus-tagged M3 muscarinic acetylcholine receptor (UniProt P20309). The description is as above.
Test [5] addresses venus-tagged chimeric receptor M3-2B (M3R mutant containing the α2B-AR ICL3) (UniProt P20309). The description is as above.

Among the data in article PMC8050390 are binding values, retold here.

No constants are given. Whether binding was seen depends on the method and setting. Binding seen in cells or lysates may run through a third protein. Some results given as binding are weak or reduced against the parent protein; the word gives no strength. Tags and fused reporters may be left off the sequences shown.

B1: GFP-tagged Rab43 (protein, UniProt Q86YS6 1-212)
chain: MAGPGPGPGDPDEQYDFLFKLVLVGDASVGKTCVVQRFKTGAFSERQGSTIGVDFTMKTLEIQGKRVKLQIWDTAGQERFRTITQSYYRSANGAILAYDITKRSSFLSVPHWIEDVRKYAGSNIVQLLIGNKSDLSELREVSLAEAQSLAEHYDILCAIETSAKDSSNVEEAFLRVATELIMRHGGPLFSEKSPDHIQLNSKDIGEGWGCGC
As for B1, the binding entry is “binds weakly” in test [1] and “binds” in test [2].

B2: Rluc-tagged Rab43 (protein, UniProt Q86YS6 1-212)
chain: B1 chain
For B2, the binding result in test [3] is listed as “binds”; in test [4], “binds weakly”; in test [5], “binds”.
